What all share (experiment): EMSA
(In general: A gel shift assay detects complexes by their altered migration in electrophoresis.)

Series [1] deals with SIP1 CZF2mut full size CZF2 third His to Ser (mouse) (UniProt Q9R0G7). As to conditions: protein in a lysate after overexpression, protein details: (Myc)6, label: 32P.
Series [2] has as its target SIP1 CZF3mut full size CZF3 third His to Ser (mouse) (UniProt Q9R0G7). Particulars: protein in a lysate after overexpression, protein details: (Myc)6, label: 32P.
The target in series [3] is SIP1 NZF3mut full size NZF3 third His to Ser (mouse) (UniProt Q9R0G7). As to conditions: protein in a lysate after overexpression, protein details: (Myc)6, label: 32P.
The target of series [4] is SIP1 NZF4mut full size NZF4 third His to Ser (mouse) (UniProt Q9R0G7). As to conditions: protein in a lysate after overexpression, protein details: (Myc)6, label: 32P.
Series [5] deals with T1, SIP1 full size (SIP1FS) (mouse) (UniProt Q9R0G7).
T1 sequence (looked up): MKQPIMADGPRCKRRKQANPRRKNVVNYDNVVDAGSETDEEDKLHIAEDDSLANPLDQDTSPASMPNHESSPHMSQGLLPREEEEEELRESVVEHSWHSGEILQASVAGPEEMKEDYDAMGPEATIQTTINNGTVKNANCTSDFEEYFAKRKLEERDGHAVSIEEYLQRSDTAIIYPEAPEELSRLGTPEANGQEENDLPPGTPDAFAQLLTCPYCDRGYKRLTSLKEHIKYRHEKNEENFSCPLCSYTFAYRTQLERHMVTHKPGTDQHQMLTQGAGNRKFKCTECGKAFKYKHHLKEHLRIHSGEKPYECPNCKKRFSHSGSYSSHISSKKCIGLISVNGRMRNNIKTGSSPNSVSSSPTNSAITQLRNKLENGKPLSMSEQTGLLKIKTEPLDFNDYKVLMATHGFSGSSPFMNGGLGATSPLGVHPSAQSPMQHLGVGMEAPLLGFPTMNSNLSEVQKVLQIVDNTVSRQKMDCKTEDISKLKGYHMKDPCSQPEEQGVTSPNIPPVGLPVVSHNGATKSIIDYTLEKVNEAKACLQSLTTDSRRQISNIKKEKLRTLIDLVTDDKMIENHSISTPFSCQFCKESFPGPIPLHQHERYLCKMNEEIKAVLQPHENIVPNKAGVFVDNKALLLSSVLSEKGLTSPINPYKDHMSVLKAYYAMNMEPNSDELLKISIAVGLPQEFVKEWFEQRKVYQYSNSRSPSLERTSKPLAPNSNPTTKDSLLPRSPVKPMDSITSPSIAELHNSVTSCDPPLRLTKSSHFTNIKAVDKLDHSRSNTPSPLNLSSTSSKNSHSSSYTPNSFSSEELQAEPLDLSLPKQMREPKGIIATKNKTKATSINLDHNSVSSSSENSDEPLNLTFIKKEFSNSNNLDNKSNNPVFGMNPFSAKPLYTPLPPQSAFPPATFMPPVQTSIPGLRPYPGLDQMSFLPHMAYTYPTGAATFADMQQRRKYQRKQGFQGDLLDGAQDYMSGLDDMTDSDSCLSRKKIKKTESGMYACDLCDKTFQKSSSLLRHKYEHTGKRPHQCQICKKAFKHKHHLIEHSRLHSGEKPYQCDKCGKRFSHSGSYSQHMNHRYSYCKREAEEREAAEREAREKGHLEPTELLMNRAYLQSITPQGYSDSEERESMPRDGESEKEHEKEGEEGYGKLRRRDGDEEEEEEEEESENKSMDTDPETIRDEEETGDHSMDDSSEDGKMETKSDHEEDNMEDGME
Particulars: protein in a lysate after overexpression, protein details: N-terminal (Myc)6, pCS3, COS1 extract, label: 32P.

The target of a further series is T2, deltaEF1 full length (UniProt Q64318).
T2 sequence (looked up): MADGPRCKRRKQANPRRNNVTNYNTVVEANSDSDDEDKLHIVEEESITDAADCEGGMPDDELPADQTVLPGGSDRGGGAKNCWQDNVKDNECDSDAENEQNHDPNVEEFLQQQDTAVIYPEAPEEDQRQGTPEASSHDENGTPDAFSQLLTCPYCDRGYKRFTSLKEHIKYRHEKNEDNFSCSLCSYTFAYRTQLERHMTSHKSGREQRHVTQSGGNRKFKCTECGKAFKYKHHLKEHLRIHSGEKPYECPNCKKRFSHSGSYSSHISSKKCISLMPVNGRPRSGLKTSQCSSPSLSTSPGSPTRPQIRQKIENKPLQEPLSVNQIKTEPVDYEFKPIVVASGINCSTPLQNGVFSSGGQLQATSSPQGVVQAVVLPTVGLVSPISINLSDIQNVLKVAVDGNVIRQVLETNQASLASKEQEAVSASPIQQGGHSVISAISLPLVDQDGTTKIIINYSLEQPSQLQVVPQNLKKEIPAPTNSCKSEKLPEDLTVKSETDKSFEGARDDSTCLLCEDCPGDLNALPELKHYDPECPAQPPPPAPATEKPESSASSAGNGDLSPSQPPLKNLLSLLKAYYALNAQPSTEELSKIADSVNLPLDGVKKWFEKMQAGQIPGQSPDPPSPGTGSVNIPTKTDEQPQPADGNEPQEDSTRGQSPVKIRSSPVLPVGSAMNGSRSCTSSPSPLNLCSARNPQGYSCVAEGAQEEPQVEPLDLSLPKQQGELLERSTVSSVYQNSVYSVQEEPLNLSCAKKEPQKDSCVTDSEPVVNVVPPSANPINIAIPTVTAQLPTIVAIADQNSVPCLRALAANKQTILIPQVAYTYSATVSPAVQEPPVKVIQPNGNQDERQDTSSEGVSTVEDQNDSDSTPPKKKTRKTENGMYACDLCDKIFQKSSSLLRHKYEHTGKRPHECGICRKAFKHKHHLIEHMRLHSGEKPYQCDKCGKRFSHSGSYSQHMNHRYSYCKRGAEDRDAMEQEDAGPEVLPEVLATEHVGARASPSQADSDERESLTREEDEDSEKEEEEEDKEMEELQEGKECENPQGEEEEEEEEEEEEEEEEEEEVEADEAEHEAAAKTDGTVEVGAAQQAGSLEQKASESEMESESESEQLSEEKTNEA
As to conditions: protein in a lysate after overexpression, protein details: N-terminal (Myc)6, pCS3, COS1 extract, label: 32P.

The target in a further series is T3, SIP1CZF (mouse) (UniProt Q9R0G7).
T3 sequence (looked up): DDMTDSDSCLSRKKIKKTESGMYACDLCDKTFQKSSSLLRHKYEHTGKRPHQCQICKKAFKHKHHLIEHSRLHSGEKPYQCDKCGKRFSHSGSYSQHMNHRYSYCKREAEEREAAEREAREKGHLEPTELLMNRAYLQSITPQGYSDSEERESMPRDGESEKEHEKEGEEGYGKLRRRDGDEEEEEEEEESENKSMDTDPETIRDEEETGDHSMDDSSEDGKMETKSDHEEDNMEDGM
Particulars: protein in a lysate after overexpression, protein details: (Myc)6, pCS3, COS1 extract, label: 32P.

The next series concerns the target T4, SIP1NZF (mouse) (UniProt Q9R0G7).
T4 sequence (looked up): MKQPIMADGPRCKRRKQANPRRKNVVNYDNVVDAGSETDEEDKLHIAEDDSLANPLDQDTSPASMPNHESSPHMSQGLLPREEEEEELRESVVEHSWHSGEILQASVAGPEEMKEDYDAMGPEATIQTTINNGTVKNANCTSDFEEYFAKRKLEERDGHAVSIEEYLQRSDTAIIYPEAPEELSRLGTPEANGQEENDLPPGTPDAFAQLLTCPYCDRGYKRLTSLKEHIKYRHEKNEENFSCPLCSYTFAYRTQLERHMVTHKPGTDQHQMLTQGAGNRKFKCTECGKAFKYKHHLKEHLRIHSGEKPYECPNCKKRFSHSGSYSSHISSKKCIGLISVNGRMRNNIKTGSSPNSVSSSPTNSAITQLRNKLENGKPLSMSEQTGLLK
As to conditions: protein in a lysate after overexpression, protein details: (Myc)6, pCS3, COS1 extract, label: 32P.

The target in series [6] is GST-CZF2mut CZF2 third His to Ser (mouse) (UniProt Q9R0G7). As to conditions: purified recombinant protein; protein details: GST; label: 32P; variant of Xbra-WT.
Series [7] has as its target GST-CZF3mut CZF3 third His to Ser (mouse) (UniProt Q9R0G7). As to conditions: purified recombinant protein; protein details: GST; label: 32P; variant of Xbra-WT.
Series [8] deals with GST-NZF3mut NZF3 third His to Ser (mouse) (UniProt Q9R0G7). As to conditions: purified recombinant protein; protein details: GST; label: 32P; variant of Xbra-WT.
Series [9] addresses GST-NZF4mut NZF4 third His to Ser (mouse) (UniProt Q9R0G7). Particulars: purified recombinant protein; protein details: GST; label: 32P; variant of Xbra-WT.
Series [10] has as its target T5, FLAG-SIP1 full size (mouse) (UniProt Q9R0G7).
T5 sequence (looked up): T1 sequence (looked up)
As to conditions: affinity similar to Myc-tagged SIP1; no dimer; protein in a lysate after overexpression; protein details: N-terminal FLAG, pCDNA3, COS1 extract; label: 32P.

[11] abbreviates: also no binding when mixed with Xbra-F, variant of Xbra-WT.
[12] abbreviates: similar to Xbra-WT, variant of Xbra-WT.
The mark [13] stands for this setting: also no binding in mutant combinations.

For some assays here: At least one result comes from cells or an extract, where the contact may be indirect. For some assays here: Negatives hold for the conditions tested. For some assays here: Where a protein sequence is shown, tags need not be part of it. For some assays here: The comparison behind a weaker result is the experiment's own reference, which may not be listed here. For some assays here: The exact form of at least one protein or probe is not confirmed.

Turning to “GCAGGGCACACCTGGATTGCATTAGAATGAGACTCACTACCCAGTTCAGGTGTGTTGCGT (double strand) [alpha4I-WT]”, the binding result is given as “no binding” in [1]; “no binding” in series [2]; “no binding” in series [3]; “no binding” in series [4]; “binds” in series [5]; “binds” with deltaEF1 full length (strong, supershifted).

With “ATCCAGGCCACCTAAAATATAGAATGATAAAGTGACCAGATGTCAGTTCT (double strand) [Xbra-D]”, the binding result in series [5] (variant of Xbra-WT) is recorded as “no binding”; with SIP1CZF (mouse) (strongly affected, variant of Xbra-WT) it was “binds more weakly”; with SIP1NZF (mouse) (variant of Xbra-WT) it was “no binding”; with deltaEF1 full length (variant of Xbra-WT) it was “no binding”.

“TAAAGTGACCAGGTGTCAGTTCT (double strand) [Xbra-E]”: the binding result in series [6] is “no binding”; in [7], “no binding”; in series [8] it was “no binding”; in [9], “no binding”; in series [5] (setting [11]) it was “no binding”; with SIP1CZF (mouse) (setting [12]), “binds”. Moreover, the binding result was “binds” with SIP1NZF (mouse) (setting [12]) and “no binding” with deltaEF1 full length (setting [11]).

On to “CAATTTAGAGTACTGTGTACTTGGGAGTAAAGTGACCAGGTGTCAGTTCT (double strand) [Rdm+Xbra-E]”, for which the binding result is listed as “no binding” in series [5] (variant of Xbra-WT) and “binds” with SIP1CZF (mouse) (variant of Xbra-WT).

For the sequence “CAATTTAGAGTACTGTGTACTTGGGAGGGCTCAGACAGGTGTAGAATTCGGCG (double strand) [Rdm+AREB6]”, the binding result is on record as “no binding” in series [5] (variant of Xbra-F+AREB6) and “binds” in the series with SIP1CZF (mouse) (equal to Xbra-F+AREB6, variant of Xbra-F+AREB6).

Take “ATCCAGGCCACCTAAAATATAGAATGA (double strand) [Xbra-F]”: the binding result (in series [5] (variant of Xbra-WT); with SIP1CZF (mouse) (variant of Xbra-WT); in the series with SIP1NZF (mouse) (variant of Xbra-WT); in the series with deltaEF1 full length (variant of Xbra-WT)) was “no binding” throughout.

Take “ATCCAGGCCACCTAAAATATAGAATGATAAAGTGACCAGGTGTCAGTTCT (double strand) [Xbra-WT]”: the binding result in series [10] is “binds”; in series [1] (setting [13]) it was “no binding”; in series [2] (setting [13]) it was “no binding”; in series [3] (setting [13]) it was “no binding”; in series [4] (setting [13]) it was “no binding”; in [5] (strong, supershifted, both CACCT contacted by methylation interference, at least 50-fold higher affinity than SIP1CZF estimated), “binds”. Further, the binding result with SIP1CZF (mouse) (supershifted), with SIP1NZF (mouse) and with deltaEF1 full length (strong) was “binds” throughout.
